Here are results for 69 targets from the supplement of paper PMC12595434, “Development of retinoid nuclear receptor pathway antagonists through targeting aldehyde dehydrogenase 1A3” (iScience, 2025).

Amino acid sequences for entries named in this document (tags omitted). A change or cut given only in a name is not applied to a line headed by its entry.
UniProt P15907: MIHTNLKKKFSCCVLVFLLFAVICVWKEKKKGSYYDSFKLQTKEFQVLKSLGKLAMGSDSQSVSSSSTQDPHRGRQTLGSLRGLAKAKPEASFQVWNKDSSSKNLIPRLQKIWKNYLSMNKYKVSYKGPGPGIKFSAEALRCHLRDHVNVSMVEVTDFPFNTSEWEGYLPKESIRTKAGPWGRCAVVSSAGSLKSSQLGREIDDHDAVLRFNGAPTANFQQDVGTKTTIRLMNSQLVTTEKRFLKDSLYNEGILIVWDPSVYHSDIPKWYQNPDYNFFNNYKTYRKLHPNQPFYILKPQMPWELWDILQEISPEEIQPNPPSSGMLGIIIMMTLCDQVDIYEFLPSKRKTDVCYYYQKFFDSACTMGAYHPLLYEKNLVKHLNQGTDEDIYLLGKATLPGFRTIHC
UniProt P11142, whole entry, looked up: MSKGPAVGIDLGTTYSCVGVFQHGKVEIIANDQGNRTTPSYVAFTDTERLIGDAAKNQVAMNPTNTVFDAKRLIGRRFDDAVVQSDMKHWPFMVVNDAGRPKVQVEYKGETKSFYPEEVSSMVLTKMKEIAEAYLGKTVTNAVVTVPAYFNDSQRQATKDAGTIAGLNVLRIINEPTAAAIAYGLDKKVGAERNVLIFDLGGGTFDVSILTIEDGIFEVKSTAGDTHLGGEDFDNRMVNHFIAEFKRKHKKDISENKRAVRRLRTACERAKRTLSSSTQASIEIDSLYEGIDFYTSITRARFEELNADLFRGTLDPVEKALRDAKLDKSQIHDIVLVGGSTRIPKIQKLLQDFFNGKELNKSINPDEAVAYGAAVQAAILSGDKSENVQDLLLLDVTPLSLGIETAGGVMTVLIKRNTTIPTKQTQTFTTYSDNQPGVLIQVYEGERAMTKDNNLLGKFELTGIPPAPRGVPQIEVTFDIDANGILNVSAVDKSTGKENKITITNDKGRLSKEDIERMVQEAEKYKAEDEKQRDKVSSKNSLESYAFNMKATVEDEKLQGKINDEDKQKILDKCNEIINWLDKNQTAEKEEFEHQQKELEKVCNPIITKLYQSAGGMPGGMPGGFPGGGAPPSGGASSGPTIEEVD
UniProt P09958, whole entry: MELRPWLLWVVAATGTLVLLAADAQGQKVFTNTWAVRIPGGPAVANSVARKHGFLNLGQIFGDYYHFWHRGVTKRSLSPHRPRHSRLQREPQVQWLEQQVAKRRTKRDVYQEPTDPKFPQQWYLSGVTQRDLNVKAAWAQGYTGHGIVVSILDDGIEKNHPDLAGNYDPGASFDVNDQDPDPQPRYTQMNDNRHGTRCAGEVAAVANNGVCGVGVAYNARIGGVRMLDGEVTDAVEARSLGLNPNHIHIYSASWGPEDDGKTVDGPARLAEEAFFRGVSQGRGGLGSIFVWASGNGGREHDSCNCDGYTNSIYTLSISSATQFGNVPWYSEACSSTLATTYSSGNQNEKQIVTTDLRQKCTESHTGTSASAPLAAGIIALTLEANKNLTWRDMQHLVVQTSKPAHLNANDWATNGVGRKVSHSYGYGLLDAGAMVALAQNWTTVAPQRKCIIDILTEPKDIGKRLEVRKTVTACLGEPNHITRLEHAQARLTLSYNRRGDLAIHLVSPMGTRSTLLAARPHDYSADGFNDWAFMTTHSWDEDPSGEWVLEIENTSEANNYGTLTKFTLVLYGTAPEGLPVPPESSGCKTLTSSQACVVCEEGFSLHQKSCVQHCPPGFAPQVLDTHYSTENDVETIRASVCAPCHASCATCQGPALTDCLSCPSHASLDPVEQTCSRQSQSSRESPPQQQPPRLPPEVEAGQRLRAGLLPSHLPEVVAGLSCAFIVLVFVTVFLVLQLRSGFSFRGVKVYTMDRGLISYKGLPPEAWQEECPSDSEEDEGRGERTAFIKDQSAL
UniProt P19474, whole entry: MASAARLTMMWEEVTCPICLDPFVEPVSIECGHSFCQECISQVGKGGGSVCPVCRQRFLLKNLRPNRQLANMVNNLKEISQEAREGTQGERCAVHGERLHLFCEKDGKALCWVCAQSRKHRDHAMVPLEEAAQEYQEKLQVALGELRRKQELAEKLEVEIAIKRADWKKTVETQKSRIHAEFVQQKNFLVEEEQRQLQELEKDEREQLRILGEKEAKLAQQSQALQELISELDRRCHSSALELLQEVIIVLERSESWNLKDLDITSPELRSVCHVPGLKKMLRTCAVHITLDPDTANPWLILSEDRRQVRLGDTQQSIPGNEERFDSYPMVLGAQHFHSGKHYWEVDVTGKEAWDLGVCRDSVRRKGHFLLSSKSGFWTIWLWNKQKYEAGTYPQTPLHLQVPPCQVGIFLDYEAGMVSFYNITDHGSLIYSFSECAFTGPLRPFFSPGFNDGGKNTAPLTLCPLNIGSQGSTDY
UniProt P09417: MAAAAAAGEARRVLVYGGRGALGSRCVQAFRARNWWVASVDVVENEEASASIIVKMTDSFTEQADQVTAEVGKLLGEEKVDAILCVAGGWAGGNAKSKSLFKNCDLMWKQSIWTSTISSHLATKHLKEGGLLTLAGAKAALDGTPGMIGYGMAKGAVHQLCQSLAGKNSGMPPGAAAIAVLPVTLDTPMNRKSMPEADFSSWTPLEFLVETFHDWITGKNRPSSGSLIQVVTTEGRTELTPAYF
UniProt P14373: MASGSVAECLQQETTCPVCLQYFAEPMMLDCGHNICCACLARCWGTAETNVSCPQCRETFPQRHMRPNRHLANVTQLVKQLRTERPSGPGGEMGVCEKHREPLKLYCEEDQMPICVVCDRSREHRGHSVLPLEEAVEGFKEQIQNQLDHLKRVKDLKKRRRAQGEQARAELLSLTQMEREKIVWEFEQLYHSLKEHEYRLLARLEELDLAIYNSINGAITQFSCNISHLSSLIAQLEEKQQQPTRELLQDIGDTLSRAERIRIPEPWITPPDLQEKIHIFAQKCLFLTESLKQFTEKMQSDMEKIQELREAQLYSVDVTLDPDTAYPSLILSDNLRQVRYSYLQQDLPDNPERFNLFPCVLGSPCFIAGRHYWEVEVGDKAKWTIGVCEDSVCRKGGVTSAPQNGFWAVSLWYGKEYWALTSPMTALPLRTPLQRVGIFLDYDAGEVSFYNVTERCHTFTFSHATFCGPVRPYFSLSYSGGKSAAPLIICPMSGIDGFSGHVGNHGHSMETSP
UniProt P11171, whole entry: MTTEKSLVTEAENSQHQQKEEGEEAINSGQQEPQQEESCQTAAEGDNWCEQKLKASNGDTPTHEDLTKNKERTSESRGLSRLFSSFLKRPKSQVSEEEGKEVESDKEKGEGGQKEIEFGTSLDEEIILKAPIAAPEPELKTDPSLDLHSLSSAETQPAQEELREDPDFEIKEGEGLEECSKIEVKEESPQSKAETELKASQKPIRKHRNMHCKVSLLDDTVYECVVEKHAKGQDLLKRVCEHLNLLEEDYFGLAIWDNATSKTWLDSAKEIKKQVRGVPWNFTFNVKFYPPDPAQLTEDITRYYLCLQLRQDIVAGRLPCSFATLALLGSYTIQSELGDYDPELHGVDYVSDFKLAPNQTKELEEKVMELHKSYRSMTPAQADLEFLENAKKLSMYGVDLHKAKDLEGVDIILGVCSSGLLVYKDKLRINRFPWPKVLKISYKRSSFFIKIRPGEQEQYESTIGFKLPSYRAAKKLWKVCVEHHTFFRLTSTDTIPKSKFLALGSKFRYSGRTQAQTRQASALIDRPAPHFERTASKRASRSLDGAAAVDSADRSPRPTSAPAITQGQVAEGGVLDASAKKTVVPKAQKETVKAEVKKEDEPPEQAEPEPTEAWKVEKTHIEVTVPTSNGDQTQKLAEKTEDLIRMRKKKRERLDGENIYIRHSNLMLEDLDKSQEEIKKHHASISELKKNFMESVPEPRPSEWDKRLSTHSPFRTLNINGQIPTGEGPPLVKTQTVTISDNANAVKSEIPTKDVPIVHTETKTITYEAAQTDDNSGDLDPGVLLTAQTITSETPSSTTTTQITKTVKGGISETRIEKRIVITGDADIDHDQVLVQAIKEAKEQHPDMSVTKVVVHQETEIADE
UniProt P17813: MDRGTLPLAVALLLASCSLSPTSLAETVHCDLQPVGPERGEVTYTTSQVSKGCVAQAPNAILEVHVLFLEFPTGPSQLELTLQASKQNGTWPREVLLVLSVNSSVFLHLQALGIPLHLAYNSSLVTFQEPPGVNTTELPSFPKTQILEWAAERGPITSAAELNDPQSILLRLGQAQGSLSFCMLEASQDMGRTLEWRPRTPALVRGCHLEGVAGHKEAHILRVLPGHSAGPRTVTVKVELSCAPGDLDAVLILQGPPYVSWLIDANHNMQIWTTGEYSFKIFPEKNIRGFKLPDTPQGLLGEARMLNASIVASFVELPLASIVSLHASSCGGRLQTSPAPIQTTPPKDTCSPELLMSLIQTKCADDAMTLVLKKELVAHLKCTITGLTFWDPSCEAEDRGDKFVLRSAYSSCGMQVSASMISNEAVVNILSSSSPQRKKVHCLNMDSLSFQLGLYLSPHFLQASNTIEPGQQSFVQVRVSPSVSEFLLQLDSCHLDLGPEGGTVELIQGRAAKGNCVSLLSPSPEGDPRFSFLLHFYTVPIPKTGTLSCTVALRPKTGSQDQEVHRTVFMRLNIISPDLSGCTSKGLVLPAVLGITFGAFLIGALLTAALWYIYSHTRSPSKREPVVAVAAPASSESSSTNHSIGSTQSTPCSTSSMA
UniProt P08559, whole entry: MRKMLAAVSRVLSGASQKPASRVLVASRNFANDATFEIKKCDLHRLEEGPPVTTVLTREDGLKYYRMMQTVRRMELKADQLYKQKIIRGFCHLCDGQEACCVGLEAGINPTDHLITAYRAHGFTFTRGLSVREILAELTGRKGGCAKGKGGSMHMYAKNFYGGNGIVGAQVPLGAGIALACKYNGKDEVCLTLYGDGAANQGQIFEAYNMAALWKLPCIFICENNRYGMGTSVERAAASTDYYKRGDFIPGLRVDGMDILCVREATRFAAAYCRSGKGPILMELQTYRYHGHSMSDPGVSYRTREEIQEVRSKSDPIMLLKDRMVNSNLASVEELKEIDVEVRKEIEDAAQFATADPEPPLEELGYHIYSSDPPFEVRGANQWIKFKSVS
UniProt P15291: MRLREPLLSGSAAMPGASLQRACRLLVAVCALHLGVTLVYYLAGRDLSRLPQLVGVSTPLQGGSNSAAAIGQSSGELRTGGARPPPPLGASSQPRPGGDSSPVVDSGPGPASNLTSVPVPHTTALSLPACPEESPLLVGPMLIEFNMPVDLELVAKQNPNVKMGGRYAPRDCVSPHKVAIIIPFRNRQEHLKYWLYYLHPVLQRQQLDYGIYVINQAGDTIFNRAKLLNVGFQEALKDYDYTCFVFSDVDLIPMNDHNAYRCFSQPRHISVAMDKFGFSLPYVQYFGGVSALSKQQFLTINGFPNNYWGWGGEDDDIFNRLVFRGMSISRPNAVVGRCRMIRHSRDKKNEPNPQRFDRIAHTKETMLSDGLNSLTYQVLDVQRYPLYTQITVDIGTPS
UniProt P17677: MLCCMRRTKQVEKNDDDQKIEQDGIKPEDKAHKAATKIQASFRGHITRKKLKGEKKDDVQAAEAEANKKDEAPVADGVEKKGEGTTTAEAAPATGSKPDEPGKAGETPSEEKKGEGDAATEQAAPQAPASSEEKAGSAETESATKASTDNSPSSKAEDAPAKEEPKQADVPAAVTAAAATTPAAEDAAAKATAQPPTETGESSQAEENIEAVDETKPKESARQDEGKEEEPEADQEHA
UniProt P13051, whole entry: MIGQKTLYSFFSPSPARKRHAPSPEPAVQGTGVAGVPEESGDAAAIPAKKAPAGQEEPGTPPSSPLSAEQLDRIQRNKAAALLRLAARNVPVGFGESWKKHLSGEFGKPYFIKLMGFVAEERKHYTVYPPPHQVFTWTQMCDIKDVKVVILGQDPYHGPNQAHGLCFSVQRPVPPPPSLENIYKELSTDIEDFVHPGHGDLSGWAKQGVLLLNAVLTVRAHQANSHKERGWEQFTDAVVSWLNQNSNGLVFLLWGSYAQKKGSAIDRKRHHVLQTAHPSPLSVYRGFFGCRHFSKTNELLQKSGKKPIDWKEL
UniProt P17029: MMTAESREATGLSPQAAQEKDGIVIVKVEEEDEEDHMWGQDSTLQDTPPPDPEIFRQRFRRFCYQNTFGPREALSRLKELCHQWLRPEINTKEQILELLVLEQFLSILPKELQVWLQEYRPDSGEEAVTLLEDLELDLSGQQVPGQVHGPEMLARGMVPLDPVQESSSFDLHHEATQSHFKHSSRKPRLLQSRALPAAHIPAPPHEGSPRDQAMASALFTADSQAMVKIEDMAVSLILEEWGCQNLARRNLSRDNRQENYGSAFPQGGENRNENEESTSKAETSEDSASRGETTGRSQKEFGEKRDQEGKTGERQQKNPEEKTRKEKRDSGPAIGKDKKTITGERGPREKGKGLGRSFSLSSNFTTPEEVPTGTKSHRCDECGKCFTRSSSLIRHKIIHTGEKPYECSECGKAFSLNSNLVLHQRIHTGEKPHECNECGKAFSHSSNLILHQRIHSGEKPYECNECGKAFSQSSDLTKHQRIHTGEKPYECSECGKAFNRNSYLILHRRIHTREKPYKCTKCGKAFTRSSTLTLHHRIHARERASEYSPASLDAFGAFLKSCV

The other results are listed elsewhere or left out. Single values of this set are uncertain.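 Many melting curves are irregular; where none melted, Tm was taken as 64 °C.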

Compound in this test: CCc1cnccc1C(=O)Nc1cc2c(cc1F)NC(=O)CC2
Description: melting temperature shift (DMSO Tm minus MBE1-treated Tm) in cellular thermal proteome profiling; higher = less thermal stabilization by MBE1 (negative = stabilized by MBE1). Conditions: A375.

Take UniProt P0DMP2: the melting temperature shift is, setting by setting: (MBE1 concentration: 100 nM) 1.43 °C; (MBE1 concentration: 1 uM) 3.32 °C.
For LAMC1 (UniProt P11047), the melting temperature shift (MBE1 concentration: 100 nM) was -0.986 °C and the melting temperature shift (MBE1 concentration: 1 uM) amounted to 0.336 °C.
The like results for P0DMV9 (UniProt P0DMV8) were, in that order, -0.845 °C and -0.657 °C.
The like results for AKR1B1 (UniProt P15121) were, in that order, -0.953 °C and 0.649 °C.
Consider UniProt P15907, for which the melting temperature shift is -0.698 °C (MBE1 concentration: 100 nM) and 1.01 °C (MBE1 concentration: 1 uM).
Taken in the same sequence, the figures for HSPA8 (UniProt P11142) were -1.32 °C and -0.879 °C.
For the target ATF6 (UniProt P18850), the melting temperature shift is -1.84 °C (MBE1 concentration: 100 nM) and -1.45 °C (MBE1 concentration: 1 uM).
The like results for FURIN (UniProt P09958) were, in that order, -0.672 °C and 1.35 °C.
The like results for HSP90AB1 (UniProt P08238) were, in that order, -0.288 °C and 0.0604 °C.
The like results for ATP2A2 (UniProt P16615) were, in that order, -0.32 °C and 0.379 °C.
Consider UniProt P10070, for which the melting temperature shift is, setting by setting: (MBE1 concentration: 100 nM) 0.861 °C; (MBE1 concentration: 1 uM) -1.25 °C.
As for POR (UniProt P16435), the melting temperature shift was -0.536 °C (MBE1 concentration: 100 nM) and -0.0183 °C (MBE1 concentration: 1 uM).
For TRIM21 (UniProt P19474), the melting temperature shift is -0.825 °C (MBE1 concentration: 100 nM) and 0.055 °C (MBE1 concentration: 1 uM).
In the case of QDPR (UniProt P09417), the melting temperature shift is -0.879 °C (MBE1 concentration: 100 nM) and -0.666 °C (MBE1 concentration: 1 uM).
The like results for UniProt P16144 were, in that order, -0.885 °C and 0.852 °C.
Taken in the same sequence, the figures for MRPL3 (UniProt P09001) were -2.75 °C and -2.47 °C.
Taken in the same sequence, the figures for UniProt P12757 were -0.104 °C and 0.397 °C.
Turning to ACP2 (UniProt P11117), the melting temperature shift was -2.76 °C (MBE1 concentration: 100 nM) and 0.348 °C (MBE1 concentration: 1 uM).
The like results for NCL (UniProt P19338) were, in that order, 0.147 °C and -0.788 °C.
The like results for TRIM27 (UniProt P14373) were, in that order, -1.02 °C and 6.41 °C.
On to TUBB (UniProt P07437), for which the melting temperature shift reads like this: (MBE1 concentration: 100 nM) -1.32 °C; (MBE1 concentration: 1 uM) 0.8 °C.
The like results for NCK1 (UniProt P16333) were, in that order, -0.643 °C and -0.667 °C.
Taken in the same sequence, the figures for HNRNPA1 (UniProt P09651) were -0.208 °C and -0.202 °C.
Taken in the same sequence, the figures for ATP5J (UniProt P18859) were 4.61 °C and 1.22 °C.
EPB41 (UniProt P11171): the melting temperature shift is -0.551 °C (MBE1 concentration: 100 nM) and 0.269 °C (MBE1 concentration: 1 uM).
Taken in the same sequence, the figures for UBTF (UniProt P17480) were -0.199 °C and -0.288 °C.
With SNRPA (UniProt P09012), the melting temperature shift reads like this: (MBE1 concentration: 100 nM) -0.287 °C; (MBE1 concentration: 1 uM) -2.09 °C.
Taken in the same sequence, the figures for HSPD1 (UniProt P10809) were -0.366 °C and 0.0488 °C.
The like results for UniProt P12110 were, in that order, -1.19 °C and 2.3 °C.
Consider ENG (UniProt P17813), for which the melting temperature shift (MBE1 concentration: 100 nM) was -3.59 °C and the melting temperature shift (MBE1 concentration: 1 uM) amounted to 2.03 °C.
The like results for CPM (UniProt P14384) were, in that order, 8.19 °C and 6.6 °C.
Taken in the same sequence, the figures for ERCC1 (UniProt P07992) were -0.0672 °C and -0.721 °C.
Taken in the same sequence, the figures for ITGA5 (UniProt P08648) were -6.16 °C and 0.301 °C.
On to TXN (UniProt P10599), for which the melting temperature shift is -3.71 °C (MBE1 concentration: 100 nM) and -2.63 °C (MBE1 concentration: 1 uM).
The like results for UniProt P09488 were, in that order, -0.727 °C and 0.427 °C.
The like results for LAMP2 (UniProt P13473) were, in that order, -4.2 °C and -1.84 °C.
The like results for CKMT1A (UniProt P12532) were, in that order, -0.227 °C and 1.62 °C.
On to CTPS1 (UniProt P17812), for which the melting temperature shift was -0.714 °C (MBE1 concentration: 100 nM) and 1.35 °C (MBE1 concentration: 1 uM).
Taken in the same sequence, the figures for AKR1A1 (UniProt P14550) were -0.724 °C and -0.128 °C.
Taken in the same sequence, the figures for ITGA2 (UniProt P17301) were -0.913 °C and -1.24 °C.
Taken in the same sequence, the figures for P4HB (UniProt P07237) were -1.67 °C and -0.513 °C.
Take PARP1 (UniProt P09874): the melting temperature shift by setting is: (MBE1 concentration: 100 nM) -0.457 °C; (MBE1 concentration: 1 uM) -0.596 °C.
Turning to PDHA1 (UniProt P08559), the melting temperature shift was found to be 1.8 °C (MBE1 concentration: 100 nM) and 1.07 °C (MBE1 concentration: 1 uM).
The like results for B4GALT1 (UniProt P15291) were, in that order, -0.382 °C and 0.826 °C.
Taken in the same sequence, the figures for UniProt P17677 were 0 °C and -1.99 °C.
UniProt P09104: the melting temperature shift reads like this: (MBE1 concentration: 100 nM) -2.44 °C; (MBE1 concentration: 1 uM) -3.13 °C.
Regarding CCNA2 (UniProt P20248), the melting temperature shift is -2.6 °C (MBE1 concentration: 100 nM) and 0.366 °C (MBE1 concentration: 1 uM).
The like results for UniProt P15882 were, in that order, -0.434 °C and -0.177 °C.
Taken in the same sequence, the figures for SRP19 (UniProt P09132) were 0.0427 °C and 0.0916 °C.
Taken in the same sequence, the figures for G6PD (UniProt P11413) were -0.127 °C and -0.409 °C.
With PRPS2 (UniProt P11908), the melting temperature shift was -0.563 °C (MBE1 concentration: 100 nM) and 0.55 °C (MBE1 concentration: 1 uM).
In the case of ERCC2 (UniProt P18074), the melting temperature shift runs as follows: (MBE1 concentration: 100 nM) -1.34 °C; (MBE1 concentration: 1 uM) 0.154 °C.
Taken in the same sequence, the figures for DARS (UniProt P14868) were -0.4 °C and -0.24 °C.
Taken in the same sequence, the figures for MAPT (UniProt P10636) were -5.31 °C and -2.94 °C.
Taken in the same sequence, the figures for SRC (UniProt P12931) were -1.03 °C and 0.122 °C.
Regarding UniProt P09668, the melting temperature shift runs as follows: (MBE1 concentration: 100 nM) -1.95 °C; (MBE1 concentration: 1 uM) -1.87 °C.
Taken in the same sequence, the figures for UniProt P13591 were -3.48 °C and -2.89 °C.
Taken in the same sequence, the figures for UNG (UniProt P13051) were 0.659 °C and -0.128 °C.
The like results for PSMC3 (UniProt P17980) were, in that order, -0.657 °C and 0.412 °C.
With NQO1 (UniProt P15559), the melting temperature shift runs as follows: (MBE1 concentration: 100 nM) 0.989 °C; (MBE1 concentration: 1 uM) 0.464 °C.
Taken in the same sequence, the figures for LGALS1 (UniProt P09382) were -0.738 °C and -1.44 °C.
The like results for ZKSCAN1 (UniProt P17029) were, in that order, -1.47 °C and -0.858 °C.
Consider CNP (UniProt P09543), for which the melting temperature shift reads like this: (MBE1 concentration: 100 nM) 0.134 °C; (MBE1 concentration: 1 uM) 0.153 °C.
The like results for ACTN1 (UniProt P12814) were, in that order, -1.12 °C and -1.09 °C.
Taken in the same sequence, the figures for ALDOC (UniProt P09972) were -1.27 °C and -1.18 °C.
The like results for DDX5 (UniProt P17844) were, in that order, -0.494 °C and 0.0847 °C.
In the case of ACADS (UniProt P16219), the melting temperature shift is 0.27 °C (MBE1 concentration: 100 nM) and -1.36 °C (MBE1 concentration: 1 uM).
Taken in the same sequence, the figures for LDHB (UniProt P07195) were -0.723 °C and -0.914 °C.
The like results for UniProt P0C7T5 were, in that order, 0.0201 °C and 10.6 °C.
